Test results published in publication PMC10163288.
The list shows a part of the results.

B1: il2ra_site2_2erj_sap_19_mot_HHH_b1_06697_000000025_0001_41_54_H_._HHH_b1_04451_0001_0000600031_0000001_0_0001 (protein)
chain: DEEHEAAVIVWKLNDFDLWSALLDLLRLKAHGTLTPELEELLEQIVELILNGDPEEARRLAKEVQ
B2: il2ra_site2_2erj_sap_15_mot_HHH_b1_02408_000000223_0001_1_20_H_._HHH_b1_08334_0001_0000600027_0000001_1_0001 (protein)
chain: SSSSSDLHELYELANLLMELLHKGDREEFEHIYEEAEELAKELDSPNAREFIEFLFRELHSSSSS
B3: il2ra_site2_3nfp_normal_mot_HHH_b2_07007_000000117_0001_21_37_H_._HHH_b1_07250_af2_0001_0000100001_0000001_0 (protein)
chain: SSSSSEEERIEELLEQIREAIEEGDEEKARRLLQEVTNLVFELRDFEKFIEVLRLAQLLLSSSSS
B4: il2ra_site1_1z92_sap_13_mot_HHH_b2_01038_000000100_0001_1_17_H_._HHH_b1_03230_0001_0000800041_0000001_0_0001_af2pred_0001_af2pred_1 (protein)
chain: SDERSLRRIAESASKLAGVTSVEVRVENGHVTVHVEADDDEAEALLRDLRQFAEFLGLEVEITIE
B5: il2ra_site2_3nfp_sap_23_mot_HHH_b2_07186_000000029_0001_1_18_H_._HHH_b2_02278_0001_0000100015_0000001_1_0001 (protein)
chain: SSSSDVEELIEEARELIEEGDTLRAFEALQEATELARELGDPELLERLDELSQAILEREGSSSSS
B6: il2ra_site2_2erj_normal_mot_af86707857d369f3e1d85dcabc5f9321_0001_000000201_0001_14_29_H_._HHH_b1_08035_af2_0001_0000400017_0000001_0 (protein)
chain: SSSSDELEELLEQARELIEEGDPEEALKVLSEAFELAYRLGDHRAAAEIIELAHQVIRSESSSSS
B7: il2ra_site1_1z92_normal_mot_HHH_b1_05897_000000193_0001_23_40_H_._HEEHE_3088_af2_0001_0000300010_0000001_0_af2pred_0001_af2pred (protein)
chain: DDEEDVERAVEELARHAGVPEVEVSRSNGEFSVTFHGDEDYARAASRAVEIILRSAGIEVEVRTE
B8: il2ra_site1_3nfp_normal_mot_e80b558ee5422d85aa46efdc370d0602_0001_af2_000000114_0001_54_65_H_._HHH_b1_06938_af2_0001_0000100002_0000001_0_1_af2pred_0001_af2pred … (protein)
chain: SSSSDSHEFLEKLVEEAFRRNDKHQLKALIRMIEHALEKHGDPEVEELLKEARELLEELRSSSSS
B9: il2ra_site2_3nfp_normal_mot_HHH_b1_08076_af2_000000138_0001_43_55_H_._HHH_b2_03973_0001_0000300011_0000001_0 (protein)
chain: SSSSDVEEAAERLLELAILRLREEGDEETVEELEELLEQYKETGDPQVLHEALQIAVRALSSSSS
B10: il2ra_site1_2b5i_sap_27_mot_e4f16f412d24973e63efe4e4a8bb3ce7_0001_1_af2_000000119_0001_1_13_H_._HHH_b2_04792_0001_0000100012_0000001_0_0001_af2pred_dldesign_0_a … (protein)
chain: SSSSSEEIRELVEELLEEAKKLKDKKERYKLLKLALRLARKHNDEELIAKVEAFLKEVSKSSSSS
B11: il2ra_site2_3nfp_normal_mot_HHH_b2_04230_000000235_0001_39_52_H_._72a79b14e1a0e827e78e129a6f5f8f0c_0001_1_0001_0000300027_0000001_0 (protein)
chain: DQELSQRIYELAREGDPVAFLLYALLAEVAYKGDPELRRLLEEALEALERGNPEEAEEIVHKALQ
B12: il2ra_site1_1z92_sap_14_mot_HHH_b1_00561_af2_000000294_0001_1_19_H_._HHH_b2_00438_0001_0000300040_0000001_0_0001 (protein)
chain: SLEELEEEVKEAAENNDPELLRELLERLEEISGDPRLATQYLVILIAKVLNIPPEEAKKIVEEVK
B13: il2ra_site1_1z92_normal_mot_3d621733409fa4d2bc95fa1761ba6d8e_0001_af2_000000005_0001_1_12_H_._31bff7180b20e3ed47766ceefd9934be_0001_0001_0000200020_0000001_0_af … (protein)
chain: DEEEELARLIREAVEKNDPELLREVLEELEEKLGDPKRAVELFFRLLKLAGLSPREIFEAAQLVL
B14: il2ra_site2_3nfp_normal_mot_HHH_b1_05437_000000005_0001_40_57_H_._HHH_b2_06891_0001_0000200018_0000001_0 (protein)
chain: SSSSSSREEVEELLRQAEELYERGNPEEARKLLAEATHIAYETGDFEAFALVAEVLTRLEQSSSS
B15: il2ra_site1_3nfp_normal_mot_ems_3hM_3354_af2_000000165_0001_44_63_H_._HEEHE_0134_af2_0001_0000200023_0000001_0_af2pred_0001_af2pred_swapped (protein)
chain: NEEEEVRRAIEEVAEHVGVPSVTVEVEDGHIEVTFKGDEQDARAAALFVERALKSLGLSAEVTVK
B16: il2ra_site2_2erj_normal_mot_5ab283b237ac2ed796690f09fe12d960_0001_000000016_0001_18_34_H_._HHH_b1_00097_0001_0000200008_0000001_0_af2pred_0001_1_af2pred_swapped (protein)
chain: SSSSDEEEREELEQLIEELVKELGLSEEQKEHLELSLRNALEAGVDVESIKLYLELIAKMLSSSS
B17: il2ra_site2_3nfp_normal_mot_HHH_b1_02297_000000279_0001_41_58_H_._HHH_b2_04513_0001_0000300006_0000001_0 (protein)
chain: SSSSDLEERVRELLREAEERREEGDEERVRELLAEATHLAFELGNFELFALINEVSFRLLKSSSS
B18: il2ra_site2_3nfp_normal_mot_HHH_b2_00429_000000100_0001_21_37_H_._HHH_b1_08311_0001_0000300035_0000001_0 (protein)
chain: SSSSDEEVERLIEEAEELLRNGNPEEAKRVISRATDLAYEAGDHRLFALLVDLVAVVAHLLSSSS

Each binder was assayed against il2ra, P01589 (assay: yeast display titration).

| Binder | apparent Kd |
| --- | --- |
| B1 | inactive: no binding seen |
| B2 | inactive: no binding seen |
| B3 | inactive: no binding seen |
| B4 | inactive: no binding seen |
| B5 | inactive: no binding seen |
| B6 | inactive: no binding seen |
| B7 | inactive: no binding seen |
| B8 | inactive: no binding seen |
| B9 | inactive: no binding seen |
| B10 | inactive: no binding seen |
| B11 | inactive: no binding seen |
| B12 | inactive: > 105 nM |
| B13 | inactive: no binding seen |
| B14 | inactive: no binding seen |
| B15 | inactive: no binding seen |
| B16 | inactive: no binding seen |
| B17 | inactive: no binding seen |
| B18 | inactive: no binding seen |

Reprinted from the entries so far for reference:

| Binder | apparent Kd |
| --- | --- |
| B7 | inactive: no binding seen |
| B8 | inactive: no binding seen |
| B9 | inactive: no binding seen |
